No constants are given. Whether binding was seen depends on the method and setting. In cells and extracts the contact can be indirect. These calls come from enrichment with a bait or labelling near it, and not all partners need be listed. Where a sequence is shown, tags or fusion partners need not be part of it.
Target: T1, S-adenosylmethionine lyase (SAMase) of bacteriophage T3, C-terminal His-tagged (bacteriophage T3) (UniProt P07693)
T1 sequence: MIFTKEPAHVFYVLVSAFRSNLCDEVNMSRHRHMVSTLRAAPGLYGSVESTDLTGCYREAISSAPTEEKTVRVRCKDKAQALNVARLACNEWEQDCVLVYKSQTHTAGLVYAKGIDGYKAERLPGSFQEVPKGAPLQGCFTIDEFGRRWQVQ
Assay: affinity purification with mass spectrometry

B1: E. coli methionine S-adenosyltransferase (MAT), endogenous (enzyme, UniProt P0A817 1-384)
chain: MAKHLFTSESVSEGHPDKIADQISDAVLDAILEQDPKARVACETYVKTGMVLVGGEITTSAWVDIEEITRNTVREIGYVHSDMGFDANSCAVLSAIGKQSPDINQGVDRADPLEQGAGDQGLMFGYATNETDVLMPAPITYAHRLVQRQAEVRKNGTLPWLRPDAKSQVTFQYDDGKIVGIDAVVLSTQHSEEIDQKSLQEAVMEEIIKPILPAEWLTSATKFFINPTGRFVIGGPMGDCGLTGRKIIVDTYGGMARHGGGAFSGKDPSKVDRSAAYAARYVAKNIVAAGLADRCEIQVSYAIGVAEPTSIMVETFGTEKVPSEQLTLLVREFFDLRPYGLIQMLDLLHPIYKETAAYGHFGREHFPWEKTDKAQLLRDAAGLK
For B1, the binding was “binds”.

Reference: doi:10.1101/2021.05.05.442785 (bioRxiv, 2021)
